These are yes or no findings as the source states them, for the method shown. Some binding calls cover weakened binding; strength is not graded here.
Columns and labels:
[1] = target: T1, Podocalyxin-like protein (PODXL), human, on the surface of hESC (HES-3) and IPSC (ES4SKIN, ESIMR90) (human) (UniProt O00592); assay: flow cytometry on hESC and IPSC lines, taken together with the PI exclusion cytotoxicity assay
T1 sequence: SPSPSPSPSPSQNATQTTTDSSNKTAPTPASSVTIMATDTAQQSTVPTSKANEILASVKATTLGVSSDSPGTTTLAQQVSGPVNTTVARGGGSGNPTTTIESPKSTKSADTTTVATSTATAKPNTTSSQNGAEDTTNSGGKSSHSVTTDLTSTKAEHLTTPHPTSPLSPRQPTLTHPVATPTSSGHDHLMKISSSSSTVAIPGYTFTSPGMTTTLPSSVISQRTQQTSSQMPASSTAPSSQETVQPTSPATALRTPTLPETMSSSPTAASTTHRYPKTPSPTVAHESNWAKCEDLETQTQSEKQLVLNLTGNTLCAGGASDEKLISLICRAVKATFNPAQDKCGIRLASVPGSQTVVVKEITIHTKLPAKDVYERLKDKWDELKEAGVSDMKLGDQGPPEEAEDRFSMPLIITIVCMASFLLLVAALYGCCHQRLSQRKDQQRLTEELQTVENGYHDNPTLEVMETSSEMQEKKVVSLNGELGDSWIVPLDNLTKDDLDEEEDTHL

[2] = target: T1, Podocalyxin-like protein (PODXL), human, on the surface of hESC (HES-3) and IPSC (ES4SKIN, ESIMR90) (human); assay: flow cytometry on HES-3, ES4SKIN and ESIMR90 cells, anti-mouse-FITC detection

- binding [2]: binds
B1: mAb 84 (antibody, V domains shown)
VH: QVQLQQSGGGLVQPGGSMKLSCVASGFTFSNYWMNWVRQSPEKGLEWVAEIRLKSNNYATHYAESVKGRFTISRDDSKSSVYLQMNNLRAEDTGIYYCTGERAWGQGTTVTVSS
VL: DIELTQSPAIMSASPGEKVTMTCSASSSVNYMYWYQQKPGSSPRLLIYDTSNLASGVPVRFSGSGSGTSYSLTISRMEAEDAATYYCQQWSSYPYTFGGGTKLEIKR
- binding [1]: binds
